The results in this text go back to paper doi:10.1101/2022.11.15.516651.

Sequences of proteins named here, by UniProt entry; tags and fusion partners are left off. A change or cut given only in a name is not applied to a line headed by its entry. A line that says so, or that is headed by a name, gives the form on record, which may keep a tag or linker. Residues count along the entry.
FLAG-SLC3A2 WTseq (P08195, residues 66-630): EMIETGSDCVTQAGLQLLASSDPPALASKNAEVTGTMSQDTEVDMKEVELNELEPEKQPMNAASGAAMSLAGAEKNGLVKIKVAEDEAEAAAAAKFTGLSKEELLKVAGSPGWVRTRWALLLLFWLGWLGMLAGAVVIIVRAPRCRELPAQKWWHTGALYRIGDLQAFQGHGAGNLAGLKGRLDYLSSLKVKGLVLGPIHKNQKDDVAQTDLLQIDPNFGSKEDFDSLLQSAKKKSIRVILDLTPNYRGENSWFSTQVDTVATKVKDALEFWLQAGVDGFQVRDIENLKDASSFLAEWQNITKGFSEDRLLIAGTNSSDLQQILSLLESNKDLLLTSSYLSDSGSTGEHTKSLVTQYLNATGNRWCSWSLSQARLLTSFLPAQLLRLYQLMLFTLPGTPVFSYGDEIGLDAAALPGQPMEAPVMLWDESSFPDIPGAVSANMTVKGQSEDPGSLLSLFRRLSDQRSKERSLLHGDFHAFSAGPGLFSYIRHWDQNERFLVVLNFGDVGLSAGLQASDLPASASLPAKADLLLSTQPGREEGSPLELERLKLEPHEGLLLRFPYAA
FLAG-SLC3A2 A273N (P08195, form named): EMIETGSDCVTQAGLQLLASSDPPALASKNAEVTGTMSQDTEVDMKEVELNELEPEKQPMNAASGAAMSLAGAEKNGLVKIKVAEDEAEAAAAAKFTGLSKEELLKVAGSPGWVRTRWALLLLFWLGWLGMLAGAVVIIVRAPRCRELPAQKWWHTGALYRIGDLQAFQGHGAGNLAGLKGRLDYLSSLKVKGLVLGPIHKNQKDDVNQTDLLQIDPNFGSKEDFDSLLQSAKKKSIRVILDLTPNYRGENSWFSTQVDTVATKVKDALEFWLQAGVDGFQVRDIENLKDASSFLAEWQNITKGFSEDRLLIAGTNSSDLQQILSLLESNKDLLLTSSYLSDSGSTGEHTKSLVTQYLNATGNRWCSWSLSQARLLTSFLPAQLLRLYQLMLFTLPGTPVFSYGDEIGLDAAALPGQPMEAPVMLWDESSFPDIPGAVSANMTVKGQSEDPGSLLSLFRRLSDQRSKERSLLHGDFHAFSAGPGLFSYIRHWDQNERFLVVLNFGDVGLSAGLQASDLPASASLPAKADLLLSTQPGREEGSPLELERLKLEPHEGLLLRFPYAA
FLAG-SLC3A2 A273N+D355N (P08195, form named): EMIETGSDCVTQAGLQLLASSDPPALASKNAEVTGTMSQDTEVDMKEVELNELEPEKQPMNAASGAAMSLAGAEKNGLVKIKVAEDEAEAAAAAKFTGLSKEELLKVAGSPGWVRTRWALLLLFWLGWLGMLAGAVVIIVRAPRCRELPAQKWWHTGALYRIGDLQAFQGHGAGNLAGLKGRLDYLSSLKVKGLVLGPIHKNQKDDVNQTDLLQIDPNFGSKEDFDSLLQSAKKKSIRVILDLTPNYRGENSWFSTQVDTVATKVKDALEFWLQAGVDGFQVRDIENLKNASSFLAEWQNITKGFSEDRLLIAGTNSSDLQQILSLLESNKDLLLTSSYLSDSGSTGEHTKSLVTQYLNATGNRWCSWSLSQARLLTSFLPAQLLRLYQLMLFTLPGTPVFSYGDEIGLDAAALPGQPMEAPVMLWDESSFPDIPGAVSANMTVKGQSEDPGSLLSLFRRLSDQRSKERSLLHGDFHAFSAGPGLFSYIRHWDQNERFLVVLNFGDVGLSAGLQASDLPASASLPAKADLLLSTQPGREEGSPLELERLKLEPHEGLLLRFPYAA

Common to all, as to assay: affinity purification with mass spectrometry
The target in assay [1] is FLAG-SLC3A2 WTseq (human) (UniProt P08195).
Assay [2] concerns the target FLAG-SLC3A2 A273N (human) (UniProt P08195).
Assay [3] deals with FLAG-SLC3A2 A273N+D355N (human) (UniProt P08195).

Results are given in words; binding and its absence hold for the method and conditions named. Binding seen in cells or lysates may run through a third protein. A yes stands for co-enrichment or nearness to the bait. Other partners may have been found.

B1: SLC25A19 (protein, UniProt Q9HC21 1-320)
chain: MVGYDPKPDGRNNTKFQVAVAGSVSGLVTRALISPFDVIKIRFQLQHERLSRSDPSAKYHGILQASRQILQEEGPTAFWKGHVPAQILSIGYGAVQFLSFEMLTELVHRGSVYDAREFSVHFVCGGLAACMATLTVHPVDVLRTRFAAQGEPKVYNTLRHAVGTMYRSEGPQVFYKGLAPTLIAIFPYAGLQFSCYSSLKHLYKWAIPAEGKKNENLQNLLCGSGAGVISKTLTYPLDLFKKRLQVGGFEHARAAFGQVRRYKGLMDCAKQVLQKEGALGFFKGLSPSLLKAALSTGFMFFSYEFFCNVFHCMNRTASQR
For the molecule B1, the binding entry in assay [1] is given as “binds”.

B2: SLC25A11 (protein, UniProt Q02978 1-314)
chain: MAATASAGAGGIDGKPRTSPKSVKFLFGGLAGMGATVFVQPLDLVKNRMQLSGEGAKTREYKTSFHALTSILKAEGLRGIYTGLSAGLLRQATYTTTRLGIYTVLFERLTGADGTPPGFLLKAVIGMTAGATGAFVGTPAEVALIRMTADGRLPADQRRGYKNVFNALIRITREEGVLTLWRGCIPTMARAVVVNAAQLASYSQSKQFLLDSGYFSDNILCHFCASMISGLVTTAASMPVDIAKTRIQNMRMIDGKPEYKNGLDVLFKVVRYEGFFSLWKGFTPYYARLGPHTVLTFIFLEQMNKAYKRLFLSG
Take B2: in assay [1], the binding entry is “binds”.

B3: SLC25A22 (protein, UniProt Q9H936 1-323)
chain: MADKQISLPAKLINGGIAGLIGVTCVFPIDLAKTRLQNQQNGQRVYTSMSDCLIKTVRSEGYFGMYRGAAVNLTLVTPEKAIKLAANDFFRHQLSKDGQKLTLLKEMLAGCGAGTCQVIVTTPMEMLKIQLQDAGRIAAQRKILAAQGQLSAQGGAQPSVEAPAAPRPTATQLTRDLLRSRGIAGLYKGLGATLLRDVPFSVVYFPLFANLNQLGRPASEEKSPFYVSFLAGCVAGSAAAVAVNPCDVVKTRLQSLQRGVNEDTYSGILDCARKILRHEGPSAFLKGAYCRALVIAPLFGIAQVVYFLGIAESLLGLLQDPQA
In the case of B3, the binding result in assay [1] was “binds”.

B4: RPN1 (protein, UniProt P04843 24-607)
chain: ASSEAPPLINEDVKRTVDLSSHLAKVTAEVVLAHLGGGSTSRATSFLLALEPELEARLAHLGVQVKGEDEEENNLEVRETKIKGKSGRFFTVKLPVALDPGAKISVIVETVYTHVLHPYPTQITQSEKQFVVFEGNHYFYSPYPTKTQTMRVKLASRNVESYTKLGNPTRSEDLLDYGPFRDVPAYSQDTFKVHYENNSPFLTITSMTRVIEVSHWGNIAVEENVDLKHTGAVLKGPFSRYDYQRQPDSGISSIRSFKTILPAAAQDVYYRDEIGNVSTSHLLILDDSVEMEIRPRFPLFGGWKTHYIVGYNLPSYEYLYNLGDQYALKMRFVDHVFDEQVIDSLTVKIILPEGAKNIEIDSPYEISRAPDELHYTYLDTFGRPVIVAYKKNLVEQHIQDIVVHYTFNKVLMLQEPLLVVAAFYILFFTVIIYVRLDFSITKDPAAEARMKVACITEQVLTLVNKRIGLYRHFDETVNRYKQSRDISTLNSGKKSLETEHKALTSEIALLQSRLKTEGSDLCDRVSEMQKLDAQVKELVLKSAVEAERLVAGKLKKDTYIENEKLISGKRQELVTKIDHILDAL
With B4, the binding result in assay [1] is listed as “binds”.

B5: DDOST (protein, UniProt P39656 43-456)
chain: SGPRTLVLLDNLNVRETHSLFFRSLKDRGFELTFKTADDPSLSLIKYGEFLYDNLIIFSPSVEDFGGNINVETISAFIDGGGSVLVAASSDIGDPLRELGSECGIEFDEEKTAVIDHHNYDISDLGQHTLIVADTENLLKAPTIVGKSSLNPILFRGVGMVADPDNPLVLDILTGSSTSYSFFPDKPITQYPHAVGKNTLLIAGLQARNNARVIFSGSLDFFSDSFFNSAVQKAAPGSQRYSQTGNYELAVALSRWVFKEEGVLRVGPVSHHRVGETAPPNAYTVTDLVEYSIVIQQLSNGKWVPFDGDDIQLEFVRIDPFVRTFLKKKGGKYSVQFKLPDVYGVFQFKVDYNRLGYTHLYSSTQVSVRPLQHTQYERFIPSAYPYYASAFSMMLGLFIFSIVFLHMKEKEKSD
On to B5, for which the binding entry in assay [1] is listed as “binds”.

B6: STT3A (protein, UniProt P46977 1-705)
chain: MTKFGFLRLSYEKQDTLLKLLILSMAAVLSFSTRLFAVLRFESVIHEFDPYFNYRTTRFLAEEGFYKFHNWFDDRAWYPLGRIIGGTIYPGLMITSAAIYHVLHFFHITIDIRNVCVFLAPLFSSFTTIVTYHLTKELKDAGAGLLAAAMIAVVPGYISRSVAGSYDNEGIAIFCMLLTYYMWIKAVKTGSICWAAKCALAYFYMVSSWGGYVFLINLIPLHVLVLMLTGRFSHRIYVAYCTVYCLGTILSMQISFVGFQPVLSSEHMAAFGVFGLCQIHAFVDYLRSKLNPQQFEVLFRSVISLVGFVLLTVGALLMLTGKISPWTGRFYSLLDPSYAKNNIPIIASVSEHQPTTWSSYYFDLQLLVFMFPVGLYYCFSNLSDARIFIIMYGVTSMYFSAVMVRLMLVLAPVMCILSGIGVSQVLSTYMKNLDISRPDKKSKKQQDSTYPIKNEVASGMILVMAFFLITYTFHSTWVTSEAYSSPSIVLSARGGDGSRIIFDDFREAYYWLRHNTPEDAKVMSWWDYGYQITAMANRTILVDNNTWNNTHISRVGQAMASTEEKAYEIMRELDVSYVLVIFGGLTGYSSDDINKFLWMVRIGGSTDTGKHIKENDYYTPTGEFRVDREGSPVLLNCLMYKMCYYRFGQVYTEAKRPPGFDRVRNAEIGNKDFELDVLEEAYTTEHWLVRIYKVKDLDNRGLSRT
B6: in assay [1], the binding entry is listed as “binds”.

B7: TMX3 (protein, UniProt Q96JJ7 25-454)
chain: KGFVEDLDESFKENRNDDIWLVDFYAPWCGHCKKLEPIWNEVGLEMKSIGSPVKVGKMDATSYSSIASEFGVRGYPTIKLLKGDLAYNYRGPRTKDDIIEFAHRVSGALIRPLPSQQMFEHMQKRHRVFFVYVGGESPLKEKYIDAASELIVYTYFFSASEEVVPEYVTLKEMPAVLVFKDETYFVYDEYEDGDLSSWINRERFQNYLAMDGFLLYELGDTGKLVALAVIDEKNTSVEHTRLKSIIQEVARDYRDLFHRDFQFGHMDGNDYINTLLMDELTVPTVVVLNTSNQQYFLLDRQIKNVEDMVQFINNILDGTVEAQGGDSILQRLKRIVFDAKSTIVSIFKSSPLMGCFLFGLPLGVISIMCYGIYTADTDGGYIEERYEVSKSENENQEQIEESKEQQEPSSGGSVVPTVQEPKDVLEKKKD
As for B7, the binding result in assay [2] and in assay [1] was “binds” throughout.

B8: SLC25A13 (protein, UniProt Q9UJS0 1-675)
chain: MAAAKVALTKRADPAELRTIFLKYASIEKNGEFFMSPNDFVTRYLNIFGESQPNPKTVELLSGVVDQTKDGLISFQEFVAFESVLCAPDALFMVAFQLFDKAGKGEVTFEDVKQVFGQTTIHQHIPFNWDSEFVQLHFGKERKRHLTYAEFTQFLLEIQLEHAKQAFVQRDNARTGRVTAIDFRDIMVTIRPHVLTPFVEECLVAAAGGTTSHQVSFSYFNGFNSLLNNMELIRKIYSTLAGTRKDVEVTKEEFVLAAQKFGQVTPMEVDILFQLADLYEPRGRMTLADIERIAPLEEGTLPFNLAEAQRQKASGDSARPVLLQVAESAYRFGLGSVAGAVGATAVYPIDLVKTRMQNQRSTGSFVGELMYKNSFDCFKKVLRYEGFFGLYRGLLPQLLGVAPEKAIKLTVNDFVRDKFMHKDGSVPLAAEILAGGCAGGSQVIFTNPLEIVKIRLQVAGEITTGPRVSALSVVRDLGFFGIYKGAKACFLRDIPFSAIYFPCYAHVKASFANEDGQVSPGSLLLAGAIAGMPAASLVTPADVIKTRLQVAARAGQTTYSGVIDCFRKILREEGPKALWKGAGARVFRSSPQFGVTLLTYELLQRWFYIDFGGVKPMGSEPVPKSRINLPAPNPDHVGGYKLAVATFAGIENKFGLYLPLFKPSVSTSKAIGGGP
With B8, the binding result in assay [1] is given as “binds”.

B9: ADP/ATP translocator SLC25A6 (protein, UniProt P12236 1-298)
chain: MTEQAISFAKDFLAGGIAAAISKTAVAPIERVKLLLQVQHASKQIAADKQYKGIVDCIVRIPKEQGVLSFWRGNLANVIRYFPTQALNFAFKDKYKQIFLGGVDKHTQFWRYFAGNLASGGAAGATSLCFVYPLDFARTRLAADVGKSGTEREFRGLGDCLVKITKSDGIRGLYQGFSVSVQGIIIYRAAYFGVYDTAKGMLPDPKNTHIVVSWMIAQTVTAVAGVVSYPFDTVRRRMMMQSGRKGADIMYTGTVDCWRKIFRDEGGKAFFKGAWSNVLRGMGGAFVLVLYDELKKVI
As to B9, the binding result in assay [1] is recorded as “binds”.

B10: SLC39A1 (protein, UniProt Q9NY26 1-324)
chain: MGPWGEPELLVWRPEAVASEPPVPVGLEVKLGALVLLLVLTLLCSLVPICVLRRPGANHEGSASRQKALSLVSCFAGGVFLATCLLDLLPDYLAAIDEALAALHVTLQFPLQEFILAMGFFLVLVMEQITLAYKEQSGPSPLEETRALLGTVNGGPQHWHDGPGVPQASGAPATPSALRACVLVFSLALHSVFEGLAVGLQRDRARAMELCLALLLHKGILAVSLSLRLLQSHLRAQVVAGCGILFSCMTPLGIGLGAALAESAGPLHQLAQSVLEGMAAGTFLYITFLEILPQELASSEQRILKVILLLAGFALLTGLLFIQI
For B10, the binding result in assay [2], in assay [1] and in assay [3] was “binds” each time.

B11: SLC1A5 (protein, UniProt Q15758 1-541)
chain: MVADPPRDSKGLAAAEPTANGGLALASIEDQGAAAGGYCGSRDQVRRCLRANLLVLLTVVAVVAGVALGLGVSGAGGALALGPERLSAFVFPGELLLRLLRMIILPLVVCSLIGGAASLDPGALGRLGAWALLFFLVTTLLASALGVGLALALQPGAASAAINASVGAAGSAENAPSKEVLDSFLDLARNIFPSNLVSAAFRSYSTTYEERNITGTRVKVPVGQEVEGMNILGLVVFAIVFGVALRKLGPEGELLIRFFNSFNEATMVLVSWIMWYAPVGIMFLVAGKIVEMEDVGLLFARLGKYILCCLLGHAIHGLLVLPLIYFLFTRKNPYRFLWGIVTPLATAFGTSSSSATLPLMMKCVEENNGVAKHISRFILPIGATVNMDGAALFQCVAAVFIAQLSQQSLDFVKIITILVTATASSVGAAGIPAGGVLTLAIILEAVNLPVDHISLILAVDWLVDRSCTVLNVEGDALGAGLLQNYVDRTESRSTEPELIQVKSELPLDPLPVPTEEGNPLLKHYRGPAGDATVASEKESVM
With B11, the binding result in assay [2], in assay [1] and in assay [3] was “binds” throughout.
